Laboratory results as given in PubChem BioAssay AID2685 (National Center for Advancing Translational Sciences (NCATS), 2010).
The list shows a part of the results. The main result of the screen is listed elsewhere. These columns were measured beside it and carry no call. Compounds called inactive in the main read-out are mostly missing here. The note in brackets gives the kind of curve behind each potency; many fits are weak.

Assay: qHTS Assay for Lipid Storage Modulators in Drosophila S3 Cells;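 on cell number change: cells counted by Cell Tracker Red CMTPX staining in the red channel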
Conditions: BODIPY lipid droplet fluorescence, 18-24 h; for cell number change: measured here: cell count max response, cells fed with added oleic acid
Procedure, shortened: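 Drosophila S3 cells loaded with oleic acid (400 uM, as added) and compounds at several concentrations; lipid droplets imaged by 488-nm laser-scanning cytometry, 500–530 nm intensity and object ratio to cell channel. Percent activity normalized to 20 uM Triacsin C.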

[1] = measured here: lipid fluorescence (Fed channel) AC50, cells fed with added oleic acid
[2] = measured here: cell number channel AC50, cells fed with added oleic acid

C(C#CCCCCCCCCC[n+]1ccccc1)#CCCCCCCCCC[n+]1ccccc1
AC50 [1]: 29.1 µM [falling, single point]

O=[N+]([O-])c1ccc2[nH]c(O)c(N=Nc3ccc(F)cc3)c2c1
cell number change: 5.63%
AC50 [2]: 2.59 µM [rising, partial curve]

CC1(C)CC(=O)C2=C(C1)N(c1ccc(F)cc1)C(=O)CC2c1ccsc1 (stereo not given)
cell number change: 1.05%
AC50 [1]: 29.1 µM [rising, single point]

CC(=O)c1ccc(N2CCC(c3cc(-c4ccc(Cl)cc4)n[nH]3)CC2)c([N+](=O)[O-])c1
cell number change: -16.4%
AC50 [1]: 29.1 µM [falling, partial curve, poor fit]

C=CCNC(=O)NC(=O)COC(=O)/C(C#N)=C/c1ccc(OC)cc1
cell number change: 10.3%
AC50 [1]: 0.259 µM [falling, full curve]

Cc1ccc(C(=O)N2CCN(Cc3ccc4c(c3)OCO4)CC2)cc1C
cell number change: 30.1%
AC50 [2]: 18.4 µM [rising, partial curve, poor fit]

Cc1sc2nc(C3CC3)nc(N3CCN(C(=O)c4ccccc4F)CC3)c2c1C
cell number change: 28.2%

O=C(c1cc(-c2ccc(Br)cc2)nc2ccccc12)N1CCC1
cell number change: 26%
AC50 [1]: 11.6 µM [rising, partial curve]

CCCCN(C(=O)c1ccc(COc2ccccc2)o1)c1c(N)n(CC(C)C)c(=O)[nH]c1=O
cell number change: 13.8%
AC50 [1]: 0.116 µM [rising, full curve, poor fit]

O=C(Nc1ccccc1)c1sc2cc(C(F)(F)F)cnc2c1-c1cccs1
cell number change: 53.7%
AC50 [2]: 2.59 µM [rising, full curve]
AC50 [1]: 13 µM [rising, partial curve]

COc1cc(CN(C)c2ccc(S(=O)(=O)N3CCCC3)cn2)ccc1OC(F)F
cell number change: 36.9%
AC50 [2]: 14.6 µM [rising, single point]

OC(COCc1ccc(Cl)cc1)CN1CCCCC1 (stereo not given)
cell number change: 20.1%
AC50 [1]: 29.1 µM [falling, single point]

Cc1ccc(C(=O)NCC(=O)N/N=C/c2sccc2C)cc1[N+](=O)[O-]
cell number change: 1.69%
AC50 [1]: 0.291 µM [rising, partial curve]

C=CCn1c(O)c(N=NC(=O)C(O)c2ccccc2)c2ccccc21 (stereo not given)
cell number change: 29.3%
AC50 [1]: 0.259 µM [rising, full curve, poor fit]

COc1ccc(NC(=O)CN2C(=O)NC3(CC(C)CC(C)(C)C3)C2=O)cc1S(=O)(=O)N1CCCCC1 (stereo not given)
cell number change: -1.04%
AC50 [1]: 13 µM [rising, partial curve, poor fit]

O=C(NC1CCCC1)C(c1ccccc1F)N(C(=O)c1csnn1)C1CC1 (stereo not given)
cell number change: 19.4%

FC(F)(F)c1cccc(Cc2noc(CN(Cc3ccccn3)CC3CCCO3)n2)c1 (stereo not given)
cell number change: 14.2%
AC50 [1]: 20.6 µM [rising, partial curve]

COc1cccc(CC(=O)OCC(=O)N(C)CC(=O)Nc2ccc(Cl)c(C(F)(F)F)c2)c1
cell number change: -100%
AC50 [2]: 29.1 µM [falling, single point]

Cc1cc(N2CCCC2=O)cc(C)c1S(=O)(=O)Nc1c(C)nn(C)c1C
cell number change: 21.7%
AC50 [2]: 6.51 µM [rising, single point]
AC50 [1]: 0.731 µM [falling, single point]

O=C(Cn1cnc(S(=O)(=O)N2CCCC2)c1)Nc1ccc(OC(F)(F)F)cc1
cell number change: 41.6%
AC50 [2]: 14.6 µM [rising, partial curve, poor fit]
AC50 [1]: 7.31 µM [rising, partial curve]

Cc1cc(C)n(C(=O)c2cccc(S(=O)(=O)N3CCCC3)c2)n1
cell number change: 12.5%
AC50 [1]: 0.116 µM [falling, full curve, poor fit]

N#C/C(=C/c1ccc(-c2cc(C(=O)O)cc(C(=O)O)c2)o1)c1nc2ccccc2s1
AC50 [1]: 0.00461 µM [rising, full curve, poor fit]

Cc1ccc(OCCn2cc(/C=C(\C#N)C(=O)NCC3CCCO3)c3ccccc32)cc1C (stereo not given)
cell number change: 2.33%

COc1cc(CNc2ncc(-c3ccc(Br)cc3)n2C)cc(OC)c1OC
cell number change: -31%
AC50 [2]: 29.1 µM [falling, partial curve, poor fit]
AC50 [1]: 29.1 µM [falling, single point]

COc1ccc2c(c1)c(/C=N/Nc1ccc(C(=O)O)cc1)c(C)n2C
cell number change: 75.3%
AC50 [2]: 25.9 µM [rising, single point]
AC50 [1]: 29.1 µM [rising, single point]

CCN(CC)C(=O)C1CCCN(Cc2cccc(F)c2)C1 (stereo not given)
cell number change: 11%

Cn1c(/C=C/c2ccc(Cl)cc2)c([N+](=O)[O-])c(=O)n(C)c1=O
cell number change: -9.91%
AC50 [1]: 5.17 µM [falling, full curve]

O=C(Oc1ccc(F)c(F)c1)c1ccc2c(=O)n3c(nc2c1)CCC3
AC50 [1]: 32.6 µM [falling, single point]

O=C(O)c1ccc(N/N=C/c2ccc(F)c(F)c2)cc1
cell number change: -31%
AC50 [2]: 29.1 µM [falling, single point]

FC(F)(F)c1cc(-c2cccs2)nc(-n2cc(Cl)cn2)n1
cell number change: 134%
AC50 [2]: 0.731 µM [rising, single point]
AC50 [1]: 0.517 µM [rising, partial curve, poor fit]

CC(C)(C)NC(=O)COC(=O)c1ccccc1NC(=O)c1ccco1
AC50 [2]: 0.184 µM [rising, full curve]
AC50 [1]: 0.116 µM [rising, full curve]

Cc1ccc(C(=O)NCCNC(=O)c2cccnc2)cc1
cell number change: 5.26%
AC50 [1]: 6.31 µM [falling, partial curve, poor fit]

O=C(CCC(NC(=O)OCc1ccccc1)C(=O)O)OCc1ccccc1 (stereo not given)
cell number change: 16.3%

CC12CC(c3ccccc3O1)N(C(=O)c1ccco1)C(=S)N2c1ccccc1 (stereo not given)
cell number change: 21.9%
AC50 [2]: 0.103 µM [rising, full curve, poor fit]
AC50 [1]: 23.1 µM [falling, partial curve]

O=C(Nc1ccc(CN2CCOCC2)cc1)c1ccc(Br)o1
cell number change: 15.2%

Cn1c(CC(=O)NNC(=O)c2ccc(F)cc2F)nc2ccccc21
cell number change: -18.7%
AC50 [1]: 2.31 µM [rising, partial curve, poor fit]

Cc1ccc(-n2nnc3c(SCC(=O)NCc4ccco4)ncnc32)cc1
cell number change: -42%
AC50 [2]: 18.4 µM [falling, partial curve]
AC50 [1]: 18.4 µM [falling, partial curve]

O=C(/C=C/c1ccco1)NCC(=O)N/N=C/c1ccc(Cl)cc1
cell number change: -10.8%

COc1cccc(C2NC(=O)NC(C)=C2C(=O)Nc2cccc(C)c2C)c1 (stereo not given)
cell number change: 1.62%
AC50 [1]: 0.0731 µM [rising, single point]

CCOC(=O)N1CCN(C(=O)c2ccc3c(=O)n(-c4ccc(F)cc4)c(=S)[nH]c3c2)CC1
cell number change: 66.1%
AC50 [2]: 18.4 µM [rising, partial curve]
AC50 [1]: 29.1 µM [rising, single point]

O=C(NCc1ccccc1Cl)C1CCN(S(=O)(=O)c2cccs2)CC1
cell number change: 76.2%
AC50 [2]: 1.64 µM [rising, full curve]
AC50 [1]: 4.61 µM [rising, partial curve]

O=C(CN1CCCCCC1)Nc1ccc(F)c(F)c1
cell number change: 19.2%
AC50 [1]: 0.0231 µM [rising, full curve, poor fit]

Cc1cccc(OCc2nc(-c3nonc3N)no2)c1C
cell number change: -41.5%
AC50 [2]: 18.4 µM [falling, partial curve]
AC50 [1]: 0.517 µM [rising, full curve, poor fit]

CCOC(=O)Cc1cc(=O)n2[nH]c(C)c(-c3ccc(OC)cc3)c2n1
cell number change: 162%

CC(C)(C)NC(=O)Cn1nnc(-c2cccs2)n1
cell number change: -79.2%
AC50 [2]: 32.6 µM [falling, single point]

CN1C(=O)C(=O)N(CC(=O)Nc2ccccc2OC(F)F)C1=O
cell number change: 4.66%
AC50 [1]: 0.731 µM [falling, single point]

O=C(COc1ccc([N+](=O)[O-])cc1)NCc1cccnc1
cell number change: 10.1%
AC50 [1]: 11.6 µM [rising, partial curve]

COc1ccc(-c2csc(NC(=O)C3CCCO3)n2)cc1 (stereo not given)
cell number change: 12%
AC50 [1]: 3.66 µM [rising, partial curve]

CCC1CCCCN1CCCNC(=O)CSc1nc2nc(C)c(Cc3ccccc3Cl)c(C)n2n1 (stereo not given)
AC50 [2]: 0.058 µM [falling, full curve, poor fit]

Cc1ccn2c(NC3CCCCC3)c(-c3cccc(-c4cccc(Cl)c4)c3)nc2c1
cell number change: -62.6%
AC50 [2]: 14.6 µM [falling, partial curve]
AC50 [1]: 5.8 µM [falling, single point]

O=C(O)c1ccc(NC(=O)c2cn(-c3ccccc3)nc2-c2ccc(F)cc2)cc1
cell number change: 14.5%
AC50 [2]: 6.51 µM [falling, single point]

CC(C)CN1C(=O)c2ccc(NC(=O)c3ccco3)cc2C1=O
cell number change: 0.955%
AC50 [1]: 29.1 µM [falling, single point]

CC(=O)Nc1ccc2c(c1)N(C(=O)CN(C)C)c1ccccc1CC2
cell number change: -52.6%
AC50 [2]: 10.3 µM [falling, partial curve]
AC50 [1]: 13 µM [falling, partial curve]

CC1CCCCC1NC(=O)c1ccc(N2CCCC2=O)cc1 (stereo not given)
cell number change: 101%
AC50 [2]: 18.4 µM [rising, single point]

COc1ccc(N2CCN(C(=O)CNC(=O)c3cccs3)CC2)cc1
cell number change: 4.42%

Cc1nn(CC(=O)NCCCc2ccccc2)c(=O)c2cc3occc3n12
cell number change: -14.5%

O=C(Nc1cccc(C(=O)Nc2ccc(F)cc2F)c1)c1ccccc1
cell number change: 9.53%
AC50 [1]: 0.291 µM [rising, partial curve, poor fit]

Cc1ccc(S(=O)(=O)N2CCOC2CNC(=O)C(=O)NCCc2ccccc2)cc1 (stereo not given)
cell number change: 18%
AC50 [1]: 1.64 µM [rising, full curve]
